Results are given in words; binding and its absence hold for the method and conditions named. Some results given as binding are weak or reduced against the parent protein; the word gives no strength.

By UniProt entry, the sequences of proteins in these tests, tags left out. Residues count along the entry.
UniProt P04202, residues 279-390: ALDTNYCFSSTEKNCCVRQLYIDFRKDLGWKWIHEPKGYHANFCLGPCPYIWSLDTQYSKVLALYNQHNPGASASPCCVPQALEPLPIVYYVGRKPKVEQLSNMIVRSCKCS

Results on one molecule are retold here after US20180312580A1.

Test [1] concerns the target mouse TGF-β1 (mouse) (UniProt P04202). Nature of the test: NFAT reporter in Jurkat cells carrying the CAR (FIG. 8).
For test [2] the target is unchanged. As to the kind of experiment: NFAT reporter in Jurkat cells carrying the CAR, murine TGF-β1 titrated.

B1: TGF-β CAR (created using scFv #2; spacer not stated for the assay) (receptor, not shown: large carriers)
chain: DYKDDDDKQVQLVQSGAEVKKPGSSVKVSCKASGYTFSSNVISWVRQAPGQGLEWMGGVIPIVDIANYAQRFKGRVTITADESTSTTYMELSSLRSEDTAVYYCALPRAFVLDAMDYWGQGTLVTVSSGGGGSGGGGSGGGGSETVLTQSPGTLSLSPGERATLSCRASQSLGSSYLAWYQQKPGQAPRLLIYGASSRAPGIPDRFSGSGSGTDFTLTISRLEPEDFAVYYCQQYADSPITFGQGTRLEIK
In the case of B1, the binding entry with mouse TGF-β1 (mouse) [1] and with mouse TGF-β1 (mouse) [2] was “binds” in each case.
